Laboratory results: PubChem BioAssay AID1508588 (Peter MacCallum Cancer Centre, 2020)

Aim: 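Genome-wide search for knock-downs that heighten vemurafenib action in melanoma cells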 (primary screen)
Cells: human WM266.4 melanoma cells (BRAF V600 mutant)
Knock-down reagent: siRNA pool against human genes, 40 nM
Time to read-out: 96 h from transfection to read-out
Treatment: vemurafenib 300 nM (about IC25), added 48 h after transfection, for 48 h; comparison arm got DMSO vehicle only
Measured: 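Ratios to non-targeting siRNA for cell gain, counted as DAPI nuclei after minus before drug and averaged over two replicates, and for absorbance-read medium lactate per cell; both binned into fold-change classes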
Direction: cell gain with vemurafenib: higher = more cell gain than with non-targeting siRNA; lactate per cell with vemurafenib: higher = more lactate made per cell
Active means: 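a knock-down counts as enhancing when its fold-change classes with vehicle and with vemurafenib, taken together, show a stronger drug effect on cell gain or lactate per cell; exact class pairs not stated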
Meaning of the calls: active = enhances vemurafenib effect; inactive = no enhancement seen
The whole screen tested about 18,000 reagents; shown is a random part of them. In the full data, 790 (4.4%) are marked active. 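Calls rest on a combination of fold-change classes in drug and vehicle arms, not all shown here.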

What is on record for UBE2Q1 [SID152151917]?
cell gain with vemurafenib: 0.48; lactate per cell with vemurafenib: 0.98; Outcome: inactive

Which result is listed for RFPL4AL1 [SID152156046]?
cell gain with vemurafenib: 0.37; lactate per cell with vemurafenib: 1.12; Outcome: inactive

With STX4 [SID134320256], how do the results read?
cell gain with vemurafenib: 0.5; lactate per cell with vemurafenib: 1.34; Outcome: inactive

What did the screen give for SCGB2A2 [SID152147239]?
cell gain with vemurafenib: 0.58; lactate per cell with vemurafenib: 0.77; Outcome: inactive

How did the screen score MEX3C [SID135621287]?
cell gain with vemurafenib: 0.98; lactate per cell with vemurafenib: 1.14; Outcome: inactive

How did the screen score DRC12 [SID135624846]?
cell gain with vemurafenib: 0.87; lactate per cell with vemurafenib: 1.23; Outcome: inactive

What is on record for SEC31A [SID134318342]?
cell gain with vemurafenib: 1.05; lactate per cell with vemurafenib: 0.48; Outcome: inactive

For SLC5A4 [SID134312638], what was measured?
cell gain with vemurafenib: 0.54; lactate per cell with vemurafenib: 0.76; Outcome: inactive

For UBFD1 [SID135624139], what does the deposit list?
cell gain with vemurafenib: 0.87; lactate per cell with vemurafenib: 0.62; Outcome: inactive

What did the screen give for BMP3 [SID152149770]?
cell gain with vemurafenib: 0.21; lactate per cell with vemurafenib: 1.3; Outcome: inactive

With PIGS [SID134317914], what does the deposit list?
cell gain with vemurafenib: 0.66; lactate per cell with vemurafenib: 0.72; Outcome: inactive

With PHF20 [SID152154431], what does the deposit list?
cell gain with vemurafenib: 1.07; lactate per cell with vemurafenib: 0.68; Outcome: inactive

Entries above whose target name starts with U or u:
UBE2Q1 [SID152151917] — cell gain with vemurafenib = 0.48; lactate per cell with vemurafenib = 0.98; Outcome = inactive
UBFD1 [SID135624139] — cell gain with vemurafenib = 0.87; lactate per cell with vemurafenib = 0.62; Outcome = inactive

Additional entries follow:
What did the screen give for KIF11 [SID134309845]?
cell gain with vemurafenib: 0; lactate per cell with vemurafenib: 2.62; Outcome: inactive

For COG3 [SID134317723], what does the deposit list?
cell gain with vemurafenib: 0.93; lactate per cell with vemurafenib: 0.83; Outcome: inactive

Which result is listed for IVNS1ABP [SID152150539]?
cell gain with vemurafenib: -0.11; lactate per cell with vemurafenib: 3; Outcome: inactive

How did the screen score KAT5 [SID134311719]?
cell gain with vemurafenib: 0.14; lactate per cell with vemurafenib: 1.32; Outcome: inactive

What is on record for PVRIG [SID135625202]?
cell gain with vemurafenib: 0.66; lactate per cell with vemurafenib: 1.17; Outcome: inactive

For CXCL16 [SID152153246], what does the deposit list?
cell gain with vemurafenib: 0.32; lactate per cell with vemurafenib: 2.81; Outcome: inactive

What did the screen give for HMGCL [SID152148567]?
cell gain with vemurafenib: 0.47; lactate per cell with vemurafenib: 1.41; Outcome: inactive

With FGF22 [SID134317405], what does the deposit list?
cell gain with vemurafenib: 0.14; lactate per cell with vemurafenib: 1.08; Outcome: inactive

With NT5C1B [SID135621852], what does the deposit list?
cell gain with vemurafenib: 0.87; lactate per cell with vemurafenib: 0.4; Outcome: inactive

With PDE1C [SID134312687], what does the deposit list?
cell gain with vemurafenib: 0.78; lactate per cell with vemurafenib: 0.68; Outcome: inactive

Which result is listed for DBNDD1 [SID152152709]?
cell gain with vemurafenib: 1.08; lactate per cell with vemurafenib: 0.62; Outcome: inactive

How did the screen score UCKL1 [SID152149527]?
cell gain with vemurafenib: 0.33; lactate per cell with vemurafenib: 1.09; Outcome: inactive

How did the screen score NAPEPLD [SID135624676]?
cell gain with vemurafenib: 1.28; lactate per cell with vemurafenib: 0.77; Outcome: inactive

With KCNB2 [SID134311637], what was measured?
cell gain with vemurafenib: 0.85; lactate per cell with vemurafenib: 0.7; Outcome: inactive

For ENTPD5 [SID134315588], what was measured?
cell gain with vemurafenib: 0.6; lactate per cell with vemurafenib: 0.76; Outcome: inactive
